Experimental data as given in US6716597B2, “Methods and products for regulating cell motility” (priority 2000, dated 2004).
Like-named read-outs stand apart in the source and are kept apart here.

Test system: Mena

B1: EGFP-Mena: EGFP fused to full-length Mena (amino acids 1-541 of SEQ ID NO: 2), expressed from retroviral vector pMSCV (protein)
chain: MSEQSICQARAAVMVYDDANKKWVPAGGSTGFSRVHIYHHTGNNTFRVVGRKIQDHQVVINCAIPKGLKYNQATQTFHQWRDARQVYGLNFGSKEDANVFASAMMHALEVLNSQEAAQSKVTATQDSTNLRCIFCGPTLPRQNSQLPAQVQNGPSQEELEIQRRQLQEQQRQKELERERMERERLERERLERERLERERLEQEQLERQRQEREHVERLERERLERLERERQERERERLEQLEREQVEWERERRMSNAAPSSDSSLSSAPLPEYSSCQPPSAPPPSYAKVISAPVSDATPDYAVVTALPPTSTPPTPPLRHAATRFATSLGSAFHPVLPHYATVPRPLNKNSRPSSPVNTPSSQPPAAKSCAWPTSNFSPLPPSPPIMISSPPGKATGPRPVLPVCVSSPVPQMPPSPTAPNGSLDSVTYPVSPPPTSGPAAPPPPPPPPPPPPPPPLPPPPLPPLASLSHCGSQASPPPGTPLASTPSSKPSVLPSPSAGAPASAETPLNPELGDSSASEPGLQAASQPAESPTPQGLVLG
modifications: left off: large carriers
total Mena relative to uninfected Rat2 controls (high GFP-sorted overexpressing population): 3.9 fold | total Mena relative to uninfected Rat2 controls (low GFP-sorted overexpressing population): 1.9 fold | total Mena relative to uninfected Rat2 controls (medium GFP-sorted overexpressing population): 2.7 fold
